Data as given in the supplement of paper PMC8728848.
The other results are listed elsewhere or left out.

Key:
Assay in all cases: glycan array binding signal (z-score within array); higher = stronger binding
Settings in all cases: glycan notation: IUPAC condensed, linker removed
[1] = target: GlcNAc(b1-2)Gal(b1-3)GalNAc
Outline: (§1)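 Columns mapping to the same glycan were averaged after glycan names were converted to IUPAC-condensed notation. The data come from 3228 arrays in the Consortium for Functional Glycomics database, limited to those with an available protein sequence. Binding is reported as a within-array Z-score averaged across arrays of one protein sequence and across linkers.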

[2] = target: GlcNAc(b1-2)Man(a1-3)[GlcNAc(b1-2)Man(a1-6)]Man(b1-4)GlcNAc(b1-4)GlcNAc
Outline: as §1

[3] = target: GlcNAc(b1-2)Man(a1-3)[GlcNAc(b1-2)Man(a1-6)]Man(b1-4)GlcNAc(b1-4)[Fuc(a1-6)]GlcNAc
Outline: as §1

[4] = target: GlcNAc(b1-2)Man(a1-3)[GlcNAc(b1-4)][GlcNAc(b1-2)Man(a1-6)]Man(b1-4)GlcNAc(b1-4)GlcNAc
Outline: as §1

[5] = target: GlcNAc(b1-2)Man(a1-3)[GlcNAc(b1-4)][GlcNAc(b1-2)Man(a1-6)]Man(b1-4)GlcNAc(b1-4)[Fuc(a1-6)]GlcNAc
Outline: as §1

[6] = target: GlcNAc(b1-2)[GlcNAc(b1-4)]Man(a1-3)[GlcNAc(b1-2)Man(a1-6)]Man(b1-4)GlcNAc(b1-4)GlcNAc
Outline: as §1

[7] = target: GlcNAc(b1-2)[GlcNAc(b1-4)]Man(a1-3)[GlcNAc(b1-4)][GlcNAc(b1-2)Man(a1-6)]Man(b1-4)GlcNAc(b1-4)GlcNAc
Outline: as §1

[8] = target: GlcNAc(b1-2)[GlcNAc(b1-4)]Man(a1-3)[GlcNAc(b1-4)][GlcNAc(b1-2)[GlcNAc(b1-6)]Man(a1-6)]Man(b1-4)GlcNAc(b1-4)GlcNAc
Outline: as §1

[9] = target: GlcNAc(b1-2)[GlcNAc(b1-4)]Man(a1-3)[GlcNAc(b1-4)][GlcNAc(b1-2)[GlcNAc(b1-6)]Man(a1-6)]Man(b1-4)GlcNAc(b1-4)[Fuc(a1-6)]GlcNAc
Outline: as §1

[10] = target: GlcNAc(b1-2)[GlcNAc(b1-6)]Man(a1-6)[GlcNAc(b1-2)Man(a1-3)]Man(b1-4)GlcNAc(b1-4)GlcNAc
Outline: as §1

[11] = target: GlcNAc(b1-2)[GlcNAc(b1-6)]Man(a1-6)[GlcNAc(b1-2)Man(a1-3)]Man(b1-4)GlcNAc(b1-4)[Fuc(a1-6)]GlcNAc
Outline: as §1

[12] = target: GlcNAc(b1-2)[GlcNAc(b1-6)]Man(a1-6)[GlcNAc(b1-4)][GlcNAc(b1-2)Man(a1-3)]Man(b1-4)GlcNAc(b1-4)GlcNAc
Outline: as §1

GlcNAc(b1-3)Fuc = target: GlcNAc(b1-3)Fuc
Outline: as §1

GlcNAc(b1-3)Gal = target: GlcNAc(b1-3)Gal
Outline: as §1

[13] = target: GlcNAc(b1-3)Gal(b1-3)GalNAc
Outline: as §1

GlcNAc(b1-3)Gal(b1-4)Glc = target: GlcNAc(b1-3)Gal(b1-4)Glc
Outline: as §1

[14] = target: GlcNAc(b1-3)Gal(b1-4)GlcNAc
Outline: as §1

[15] = target: GlcNAc(b1-3)Gal(b1-4)GlcNAc(b1-2)Man(a1-3)[GlcNAc(b1-3)Gal(b1-4)GlcNAc(b1-2)Man(a1-6)]Man(b1-4)GlcNAc(b1-4)GlcNAc
Outline: as §1

[16] = target: GlcNAc(b1-3)Gal(b1-4)GlcNAc(b1-2)Man(a1-3)[GlcNAc(b1-3)Gal(b1-4)GlcNAc(b1-2)Man(a1-6)]Man(b1-4)GlcNAc(b1-4)[Fuc(a1-6)]GlcNAc
Outline: as §1

[17] = target: GlcNAc(b1-3)Gal(b1-4)GlcNAc(b1-2)[GlcNAc(b1-3)Gal(b1-4)GlcNAc(b1-6)]Man(a1-6)[GlcNAc(b1-3)Gal(b1-4)GlcNAc(b1-2)Man(a1-3)]Man(b1-4)GlcNAc(b1-4)GlcNAc
Outline: as §1

[18] = target: GlcNAc(b1-3)Gal(b1-4)GlcNAc(b1-3)Gal(b1-4)GlcNAc
Outline: as §1

[19] = target: GlcNAc(b1-3)Gal(b1-4)GlcNAc(b1-3)Gal(b1-4)GlcNAc(b1-2)Man(a1-3)[GlcNAc(b1-3)Gal(b1-4)GlcNAc(b1-3)Gal(b1-4)GlcNAc(b1-2)Man(a1-6)]Man(b1-4)GlcNAc(b1-4)GlcNAc
Outline: as §1

[20] = target: GlcNAc(b1-3)Gal(b1-4)GlcNAc(b1-3)Gal(b1-4)GlcNAc(b1-2)Man(a1-3)[GlcNAc(b1-3)Gal(b1-4)GlcNAc(b1-3)Gal(b1-4)GlcNAc(b1-2)Man(a1-6)]Man(b1-4)GlcNAc(b1-4)[Fuc(a1-6)]GlcNAc
Outline: as §1

[21] = target: GlcNAc(b1-3)Gal(b1-4)GlcNAc(b1-3)Gal(b1-4)GlcNAc(b1-2)[GlcNAc(b1-3)Gal(b1-4)GlcNAc(b1-3)Gal(b1-4)GlcNAc(b1-6)]Man(a1-6)[GlcNAc(b1-3)Gal(b1-4)GlcNAc(b1-3)Gal(b1-4)GlcNAc(b1-2)Man(a1-3)]Man(b1-4)GlcNAc(b1-4)[Fuc(a1-6)]GlcNAc
Outline: as §1

[22] = target: GlcNAc(b1-3)Gal(b1-4)GlcNAc(b1-3)Gal(b1-4)GlcNAc(b1-3)Gal(b1-4)GlcNAc(b1-2)Man(a1-3)[GlcNAc(b1-3)Gal(b1-4)GlcNAc(b1-3)Gal(b1-4)GlcNAc(b1-3)Gal(b1-4)GlcNAc(b1-2)Man(a1-6)]Man(b1-4)GlcNAc(b1-4)GlcNAc
Outline: as §1

[23] = target: GlcNAc(b1-3)Gal(b1-4)GlcNAc(b1-3)Gal(b1-4)GlcNAc(b1-3)Gal(b1-4)GlcNAc(b1-2)Man(a1-3)[GlcNAc(b1-3)Gal(b1-4)GlcNAc(b1-3)Gal(b1-4)GlcNAc(b1-3)Gal(b1-4)GlcNAc(b1-2)Man(a1-6)]Man(b1-4)GlcNAc(b1-4)[Fuc(a1-6)]GlcNAc
Outline: as §1

[24] = target: GlcNAc(b1-3)Gal(b1-4)GlcNAc(b1-3)Gal(b1-4)GlcNAc(b1-3)Gal(b1-4)GlcNAc(b1-2)[GlcNAc(b1-3)Gal(b1-4)GlcNAc(b1-3)Gal(b1-4)GlcNAc(b1-3)Gal(b1-4)GlcNAc(b1-6)]Man(a1-6)[GlcNAc(b1-3)Gal(b1-4)GlcNAc(b1-3)Gal(b1-4)GlcNAc(b1-3)Gal(b1-4)GlcNAc(b1-2)Man(a1-3)]Man(b1-4)GlcNAc(b1-4)[Fuc(a1-6)]GlcNAc
Outline: as §1

[25] = target: GlcNAc(b1-3)Gal(b1-4)GlcNAc(b1-3)Gal(b1-4)GlcNAc(b1-3)Gal(b1-4)GlcNAc(b1-3)Gal(b1-4)GlcNAc(b1-2)Man(a1-3)[GlcNAc(b1-3)Gal(b1-4)GlcNAc(b1-3)Gal(b1-4)GlcNAc(b1-3)Gal(b1-4)GlcNAc(b1-3)Gal(b1-4)GlcNAc(b1-2)Man(a1-6)]Man(b1-4)GlcNAc(b1-4)GlcNAc
Outline: as §1

[26] = target: GlcNAc(b1-3)Gal(b1-4)GlcNAc(b1-3)Gal(b1-4)GlcNAc(b1-3)Gal(b1-4)GlcNAc(b1-3)Gal(b1-4)GlcNAc(b1-2)Man(a1-3)[GlcNAc(b1-3)Gal(b1-4)GlcNAc(b1-3)Gal(b1-4)GlcNAc(b1-3)Gal(b1-4)GlcNAc(b1-3)Gal(b1-4)GlcNAc(b1-2)Man(a1-6)]Man(b1-4)GlcNAc(b1-4)[Fuc(a1-6)]GlcNAc
Outline: as §1

[27] = target: GlcNAc(b1-3)Gal(b1-4)GlcNAc(b1-3)Gal(b1-4)GlcNAc(b1-3)Gal(b1-4)GlcNAc(b1-3)Gal(b1-4)GlcNAc(b1-2)[GlcNAc(b1-3)Gal(b1-4)GlcNAc(b1-3)Gal(b1-4)GlcNAc(b1-3)Gal(b1-4)GlcNAc(b1-3)Gal(b1-4)GlcNAc(b1-6)]Man(a1-6)[GlcNAc(b1-3)Gal(b1-4)GlcNAc(b1-3)Gal(b1-4)GlcNAc(b1-3)Gal(b1-4)GlcNAc(b1-3)Gal(b1-4)GlcNAc(b1-2)Man(a1-3)]Man(b1-4)GlcNAc(b1-4)[Fuc(a1-6)]GlcNAc
Outline: as §1

[28] = target: GlcNAc(b1-3)Gal(b1-4)GlcNAc(b1-3)Gal(b1-4)GlcNAc(b1-3)GalNAc
Outline: as §1

[29] = target: GlcNAc(b1-3)Gal(b1-4)GlcNAc(b1-3)GalNAc
Outline: as §1

[30] = target: GlcNAc(b1-3)Gal(b1-4)GlcNAc(b1-3)[GlcNAc(b1-3)Gal(b1-4)GlcNAc(b1-3)]GalNAc
Outline: as §1

[31] = target: GlcNAc(b1-3)Gal(b1-4)GlcNAc(b1-6)[Gal(b1-3)]GalNAc
Outline: as §1

[32] = target: GlcNAc(b1-3)Gal(b1-4)GlcNAc(b1-6)[GlcNAc(b1-3)Gal(b1-3)]GalNAc
Outline: as §1

[33] = target: GlcNAc(b1-3)Gal(b1-4)GlcNAc(b1-6)[GlcNAc(b1-3)]Gal(b1-4)GlcNAc
Outline: as §1

GlcNAc(b1-3)GalNAc = target: GlcNAc(b1-3)GalNAc
Outline: as §1

GlcNAc(b1-3)Man = target: GlcNAc(b1-3)Man
Outline: as §1

[34] = target: GlcNAc(b1-3)[GlcNAc(b1-4)][GlcNAc(b1-6)]GlcNAc
Outline: as §1

[35] = target: GlcNAc(b1-3)[GlcNAc(b1-6)]Gal(b1-4)GlcNAc
Outline: as §1

[36] = target: GlcNAc(b1-3)[GlcNAc(b1-6)]GalNAc
Outline: as §1

[37] = target: GlcNAc(b1-4)Gal(b1-4)GlcNAc
Outline: as §1

GlcNAc(b1-4)GlcNAc = target: GlcNAc(b1-4)GlcNAc
Outline: as §1

[38] = target: GlcNAc(b1-4)GlcNAc(b1-4)GlcNAc
Outline: as §1

[39] = target: GlcNAc(b1-4)GlcNAc(b1-4)GlcNAc(b1-4)GlcNAc(b1-4)GlcNAc
Outline: as §1

B1: Agalectin (Anopheles gambiae) (protein)
chain: MSNRPFTAKFPRYPENGDEVFIRGKLKDDAKSFSVNFCLPRPAQVAEHQTPPYIALHFKTIYDERDDTSRVVLNWKNLQWQQEEVLDNYWHVDRSQTFRVVFRLHEDCIKVFVNSVDHPPDYQFPVQLPLDQIESIELWDDVEHVEEISFRYDNGNSY
- glycan array binding signal (z-score) [1]: -1.34
- glycan array binding signal (z-score) [2]: -0.372
- glycan array binding signal (z-score) [3]: -0.122
- glycan array binding signal (z-score) [4]: -1.65
- glycan array binding signal (z-score) [5]: -0.859
- glycan array binding signal (z-score) [6]: 0.194
- glycan array binding signal (z-score) [7]: -0.52
- glycan array binding signal (z-score) [8]: -0.389
- glycan array binding signal (z-score) [9]: -0.443
- glycan array binding signal (z-score) [10]: -0.661
- glycan array binding signal (z-score) [11]: -0.445
- glycan array binding signal (z-score) [12]: -0.563
- glycan array binding signal (z-score) (GlcNAc(b1-3)Fuc): -0.403
- glycan array binding signal (z-score) (GlcNAc(b1-3)Gal): -0.156
- glycan array binding signal (z-score) [13]: -0.361
- glycan array binding signal (z-score) (GlcNAc(b1-3)Gal(b1-4)Glc): -0.291
- glycan array binding signal (z-score) [14]: 0.151
- glycan array binding signal (z-score) [15]: -0.912
- glycan array binding signal (z-score) [16]: 0.28
- glycan array binding signal (z-score) [17]: 1.33
- glycan array binding signal (z-score) [18]: -0.107
- glycan array binding signal (z-score) [19]: 0.942
- glycan array binding signal (z-score) [20]: 1.95
- glycan array binding signal (z-score) [21]: 3.5
- glycan array binding signal (z-score) [22]: 1.26
- glycan array binding signal (z-score) [23]: -0.198
- glycan array binding signal (z-score) [24]: 0.199
- glycan array binding signal (z-score) [25]: 3.07
- glycan array binding signal (z-score) [26]: 1.25
- glycan array binding signal (z-score) [27]: 2.63
- glycan array binding signal (z-score) [28]: -0.362
- glycan array binding signal (z-score) [29]: 0.237
- glycan array binding signal (z-score) [30]: 1.66
- glycan array binding signal (z-score) [31]: -0.279
- glycan array binding signal (z-score) [32]: -0.092
- glycan array binding signal (z-score) [33]: -0.125
- glycan array binding signal (z-score) (GlcNAc(b1-3)GalNAc): -1.12
- glycan array binding signal (z-score) (GlcNAc(b1-3)Man): -0.455
- glycan array binding signal (z-score) [34]: 0.058
- glycan array binding signal (z-score) [35]: 0.294
- glycan array binding signal (z-score) [36]: 0.051
- glycan array binding signal (z-score) [37]: -0.313
- glycan array binding signal (z-score) (GlcNAc(b1-4)GlcNAc): 0.095
- glycan array binding signal (z-score) [38]: 0.138
- glycan array binding signal (z-score) [39]: -0.567
